Laboratory results from paper PMC11894413.
No constants are given. Whether binding was seen depends on the method and setting. Some results given as binding are weak or reduced against the parent protein; the word gives no strength.

Experiments:
Test in all cases: cryo-EM structure; purified yeast TRiC, 1 mg/ml, with 1 mM ADP and 5 mM MgCl2, 15 min at 30 °C before freezing; five conformational states S1-S5 (closed to open) from one sample; contacts differ between the states; both purified
Details in all cases: remark: other sources report otherwise
[1] = biological target: CCT6 subunit of yeast TRiC/CCT (yeast), P39079
[2] = biological target: T1, CCT8 subunit of yeast TRiC/CCT (yeast), P47079
T1 chain: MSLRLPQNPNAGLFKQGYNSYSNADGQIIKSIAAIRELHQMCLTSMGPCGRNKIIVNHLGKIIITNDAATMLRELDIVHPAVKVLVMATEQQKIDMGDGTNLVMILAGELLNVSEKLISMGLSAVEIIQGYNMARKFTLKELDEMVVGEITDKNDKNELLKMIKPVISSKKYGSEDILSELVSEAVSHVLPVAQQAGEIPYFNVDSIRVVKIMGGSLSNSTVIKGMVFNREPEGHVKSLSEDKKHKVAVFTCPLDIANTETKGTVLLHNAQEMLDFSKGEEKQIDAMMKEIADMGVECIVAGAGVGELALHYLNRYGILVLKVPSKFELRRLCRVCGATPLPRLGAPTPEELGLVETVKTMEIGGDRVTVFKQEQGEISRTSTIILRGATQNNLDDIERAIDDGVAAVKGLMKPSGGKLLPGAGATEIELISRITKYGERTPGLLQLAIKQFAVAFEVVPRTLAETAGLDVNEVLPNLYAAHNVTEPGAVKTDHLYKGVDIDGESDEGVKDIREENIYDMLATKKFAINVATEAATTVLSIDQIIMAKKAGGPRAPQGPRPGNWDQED

[3] = biological target: T2, CCT7 subunit of yeast TRiC/CCT (yeast), P42943
T2 chain: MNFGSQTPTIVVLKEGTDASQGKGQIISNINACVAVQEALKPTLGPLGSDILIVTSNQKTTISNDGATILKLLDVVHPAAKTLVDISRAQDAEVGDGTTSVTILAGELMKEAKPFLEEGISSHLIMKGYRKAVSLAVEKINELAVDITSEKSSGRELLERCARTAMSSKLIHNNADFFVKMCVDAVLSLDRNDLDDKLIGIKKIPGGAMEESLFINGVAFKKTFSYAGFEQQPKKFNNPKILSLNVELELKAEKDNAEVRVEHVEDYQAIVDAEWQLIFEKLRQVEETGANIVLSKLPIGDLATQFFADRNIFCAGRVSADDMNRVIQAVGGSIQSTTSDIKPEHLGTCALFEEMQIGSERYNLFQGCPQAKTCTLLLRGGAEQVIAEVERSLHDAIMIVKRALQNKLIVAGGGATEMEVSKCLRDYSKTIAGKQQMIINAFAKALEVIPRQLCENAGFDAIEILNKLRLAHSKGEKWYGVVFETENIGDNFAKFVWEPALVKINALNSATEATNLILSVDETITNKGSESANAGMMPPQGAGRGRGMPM

[4] = biological target: T3, CCT4 subunit of yeast TRiC/CCT (yeast), P39078
T3 chain: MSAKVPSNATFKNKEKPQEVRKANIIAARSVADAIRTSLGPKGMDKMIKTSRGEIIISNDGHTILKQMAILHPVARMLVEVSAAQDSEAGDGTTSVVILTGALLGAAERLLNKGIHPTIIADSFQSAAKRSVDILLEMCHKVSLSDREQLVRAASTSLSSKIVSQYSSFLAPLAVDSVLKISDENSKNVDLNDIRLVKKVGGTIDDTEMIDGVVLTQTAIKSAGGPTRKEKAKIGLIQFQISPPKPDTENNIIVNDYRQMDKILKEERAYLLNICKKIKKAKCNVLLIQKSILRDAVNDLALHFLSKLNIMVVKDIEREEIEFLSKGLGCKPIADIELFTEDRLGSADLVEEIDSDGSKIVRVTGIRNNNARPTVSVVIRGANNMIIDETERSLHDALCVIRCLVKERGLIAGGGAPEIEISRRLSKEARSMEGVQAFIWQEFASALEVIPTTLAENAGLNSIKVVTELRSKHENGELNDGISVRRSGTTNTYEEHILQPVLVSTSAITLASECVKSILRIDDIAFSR

[5] = biological target: CCT1 subunit of yeast TRiC/CCT (yeast), P12612

B1: CCT8 subunit of yeast TRiC/CCT, P47079 1-568 (protein)
chain: T1 chain
B1 was tested. Which binding [1] did it give?
The binding was “binds”.

B2: CCT7 subunit of yeast TRiC/CCT, P42943 1-550 (protein)
chain: T2 chain
With B2 as the binder, how does the binding [2] read?
The binding was “binds”.

B3: CCT5 subunit of yeast TRiC/CCT, P40413 1-562 (protein)
chain: MAARPQQPPMEMPDLSNAIVAQDEMGRPFIIVKDQGNKKRQHGLEAKKSHILAARSVASIIKTSLGPRGLDKILISPDGEITITNDGATILSQMELDNEIAKLLVQLSKSQDDEIGDGTTGVVVLASALLDQALELIQKGIHPIKIANGFDEAAKLAISKLEETCDDISASNDELFRDFLLRAAKTSLGSKIVSKDHDRFAEMAVEAVINVMDKDRKDVDFDLIKMQGRVGGSISDSKLINGVILDKDFSHPQMPKCVLPKEGSDGVKLAILTCPFEPPKPKTKHKLDISSVEEYQKLQTYEQDKFKEMIDDVKKAGADVVICQWGFDDEANHLLLQNDLPAVRWVGGQELEHIAISTNGRIVPRFQDLSKDKLGTCSRIYEQEFGTTKDRMLIIEQSKETKTVTCFVRGSNKMIVDEAERALHDSLCVVRNLVKDSRVVYGGGAAEVTMSLAVSEEADKQRGIDQYAFRGFAQALDTIPMTLAENSGLDPIGTLSTLKSKQLKEKISNIGVDCLGYGSNDMKELFVVDPFIGKKQQILLATQLCRMILKIDNVIISGKDEY
Which results are given for B3?
binding [3]: binds; binding [4]: binds

B4: CCT4 subunit of yeast TRiC/CCT, P39078 1-528 (protein)
chain: T3 chain
Which binding [5] does the source give for B4 here?
The binding was “binds”.
